Patent US20100286247A1, “Methods of Protection from Oxidative Stress” (Trustees of Boston University, priority 2005, published 2010)

Test system: intracellular ROS in normal newborn human dermal fibroblasts
Assay: Dichlorofluorescein diacetate (DCF) assay of intracellular ROS, FACScan
Type: cell-based
Method: Normal newborn human dermal fibroblasts were cultured from foreskin specimens into DMEM supplemented with 10% CS as described above. Due to the large number of cells needed for time course experiments, and to minimize donor variability, in dichlorofluorescein diacetate FACS experiments cells from three different donors were combined.
Purified lyophilized oligonucleotides were obtained and prepared for cell treatment as described above. All treatments involved a single stimulation with T-oligo, after which cells were harvested at various times without medium changes or addition of more T-oligo. Treatment doses were 100 μM pTT and 40 μM TO except in dose-response experiments; these concentrations were determined in previous experiments to be optimal for measuring DNA damage responses using these T-oligos.^142,150,228
Complementary and scrambled oligonucleotides were chosen for each T-oligo. pAA and pCC were used as controls for pTT, and the complementary 11-base pCTAACCCTAAC (TOC1, SEQ ID NO: 22) and a scrambled sequence pGATCGATCGAT (TOC2, SEQ ID NO: 23) were used as controls for the T-oligo TO.
H2DCFDA stock solution (1 mg/ml) was thawed and diluted in Hanks' Balanced Salt Solution, 1× liquid without phenol red (GIBCO Invitrogen, Carlsbad, Calif.), to a working concentration of 100 μM immediately before use. H2DCFDA is converted by intracellular esterases to dichlorofiuorescein (DCF). When oxidized by intracellular ROS, it will fluoresce at 530 nm when excited by 480 nm light. […] All work involving DCF was conducted in minimal room light. Peaks on FACScan plots that shift to the right indicate greater fluorescence and increased ROS levels. For NADPH oxidase inhibitor studies using DPI,^237,239 the DPI stock solution was added directly to DCF treatment solution to achieve a final DPI treatment concentration of 50 μM.
Hydrogen peroxide positive controls were used to rule out saturation of the DCF probe in the T-oligo dose response experiments. Fibroblasts were exposed to 1 mM, 5 mM and 10 mM H2O2 solutions in PBS for 15 minutes following DCF incubation for 30 minutes, harvested and analyzed as described above.
The horseradish peroxidase assay data was analyzed by one-way ANOVA. DCF assay FACScan results were analyzed using Cellquest software (Becton-Dickinson, Calif.). All peak positions on x-axis of the fluorescence histogram plot were determined visually (using the software) and recorded as a number. Peak position values were then compared using one-way ANOVA.

Substance: 5′-phosphorylated thymidine dinucleotides [pTT]
- ROS measured earlier than with TO (100 μM pTT vs 40 μM TO): up to 20 hours
- time measurable ROS stimulation starts (FIG. 14 donor cells, 100 μM pTT, 40 μM TO): 36 h
- earliest time ROS levels increased (FIG. 15, three experiments, 100 μM pTT): 16 h
- time of measurable ROS stimulation (FIG. 16 representative time course, donor variability): 16 h
